Where “and” joins values, the source holds several entries; their conditions need not be identical. Identical values can stand only once. For some of these results: At least one peptide structure holds a part that was inferred or is arguable (an end, a ring closure or a residue). For some of these results: At least one structure is not confirmed: it was looked up by name or label, or the drawing left a doubt. Bridge positions count the residues as written; N and C are the ends. Peptide text beside a SMILES is read from it.
Columns and labels:
[1] = molecular target: T1, calcitonin receptors (crude rat kidney membranes) (Rattus norvegicus, UniProt P32214); details: read-out: IC50, crude kidney membranes; tubes pretreated with peptide, 40 min at 21° C.
T1 sequence (P32214 25-516): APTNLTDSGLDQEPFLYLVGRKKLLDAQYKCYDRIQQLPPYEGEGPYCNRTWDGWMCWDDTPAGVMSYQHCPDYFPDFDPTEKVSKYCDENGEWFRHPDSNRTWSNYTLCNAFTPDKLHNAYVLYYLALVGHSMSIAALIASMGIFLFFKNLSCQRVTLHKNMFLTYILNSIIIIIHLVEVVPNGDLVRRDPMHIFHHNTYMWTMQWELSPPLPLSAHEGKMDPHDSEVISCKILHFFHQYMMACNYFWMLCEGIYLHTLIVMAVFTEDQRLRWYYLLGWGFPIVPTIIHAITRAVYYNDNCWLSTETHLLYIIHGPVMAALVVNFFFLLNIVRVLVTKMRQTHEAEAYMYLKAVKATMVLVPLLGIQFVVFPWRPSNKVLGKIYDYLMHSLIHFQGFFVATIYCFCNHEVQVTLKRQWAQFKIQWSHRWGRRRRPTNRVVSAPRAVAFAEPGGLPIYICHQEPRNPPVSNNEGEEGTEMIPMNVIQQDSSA

[2] = Circular dichroism spectra, alpha-helical structure in solution; type: physicochemical
From the text: The circular dichroism (CD) spectra of MCT-I and salmon calcitonin (designated "SCT-I", available from Armour Pharmaceuticals, Kankakee, IL and used without further purification) from 250 nm to 205 nm show minima at 222 nm and 208 nm characteristic of α-helical structure. For MCT-I, the mean residue molar ellipticity at 222 nm, [θ]222, was -7,800 deg.cm^2 /dmol (10^-4 M peptide, 0.02M sodium phosphate buffer, 0.16M KCl, pH 7.4), from which the α-helicity was estimated to be 30% (assuming no contribution to CD by β-sheet structure) according to the method of Morrisett, J. D., J. S. K. Davis, H. J. Pownall, and A. M. Gotto, Biochemistry 12:1290 (1973). […] Similarly, the value of [θ]222 for solutions of SCT-I over the same concentration range and under the same conditions also remains constant at -4,600 deg.cm^2 /dmol, leading to an estimate of 20% α-helix for this peptide. In 50% trifluoroethanol, a structure promoting solvent, both MCT-I and SCT-I were estimated to be 50% α-helical at a concentration of 5×10^-5 M, as was found by Brewer, H. D. and H. Edelhoch, J. Biol. Chem. 245:2402 (1970) for porcine calcitonin (PCT) in 50% 2-chloroethanol.
The circular dichroic spectra of MCT-II solutions buffered with 0.02M sodium phosphate at pH 7.4 and containing 0.16M KCl were measured from 250 nm to 200 nm using a Carey 60™ spectropolarimeter (Varian Instruments, Palo Alto. CA). The spectrometer cells used were washed with concentrated nitric acid, rinsed thoroughly with deionized water, then treated with a 1% aqueous polyethylene glycol (Mr 15K-20K) solution for 1 hr and finally rinsed with water before using. The molar ellipticities obtained from the circular dichroic spectra of MCT-II from 240 nm to 204 nm were fitted by a linear combination of three different basis functions derived from the spectra described by Greenfield, N. and G. D. Fasman, Biochem. 8:4108(1969) for α-helix, β-sheet, and random coil structure. […]

[3] = Surface monolayer studies at the air-water interface; type: physicochemical
Protocol: For surface monolayer studies, a subphase of 0.01M Tris.HCl, pH 7.4 with 0.1M NaCl was prepared with glass-distilled water. Surfactant contaminants were removed by bubbling air through the solution for 10 min, then aspirating the surface of the buffer. Insoluble monolayers were spread from a 2.8×10^-4 M solution of MCT-I in 0.1 mM HCl. The surface pressure π(dyn/cm) of the MCT-I monomolecular layer was measured as a function of area, A (cm^2), using a Lauda™ film balance (Brinkman Instruments, Norwalk, CT). At the air-water interface, MCT-I and SCT-I form insoluble monolayers when spread from concentrated solutions in 0.01M HCl. The force-area (π-A) curves between 5 and 12 dyn/cm are described by the equation π[A-A.infin. (1-κπ)]=nRT where κ is a constant reflecting the compressibility of the monolayer and A.infin. is the limiting molecular area extrapolated to zero surface pressure. The parameters calculated for the two peptides were very similar, κ=0.016 cm/dyn for MCT-I and 0.02 cm/dyn for SCT-I, while A.infin. =362 Å^2 for MCT-I and A.infin. =322 Å^2 for SCT I. However, the collapse pressure of 24 dyn/cm found for the monolayer of MCT-I was much higher than the value of 14 dyn/cm observed for SCT-I.
Surface monolayer studies were conducted as in Example 4. MCT-II forms stable monolayers at the air-water interface when spread from concentrated solutions in 0.01M HCl. The force-area curve (π-A) between 0 dyn/cm and 21 dyn/cm can be described by the equation π(A-A.infin. (1-κπ))=nRT where A.infin. is the limiting molecular area extrapolated to zero surface pressure and κ is a constant reflecting the compressibility of the monolayer. The parameters calculated using the entire π-A curve indicate that MCT-II forms a compact, relatively rigid structure at the air-water interface. A.infin. was 362±10 Å^2 compared with 434±7 Å^2 for MCT-I and 559±18 Å^2 for SCT-I. Monolayers of SCT-I, MCT-I, and MCT-II were successively less compressible with κ having values of 0.03 cm/dyn for SCT-I, 0.02 cm/dyn for MCT-I, and 0.01 cm/dyn for MCT-II. Collapse of the monolayer occurred at 22 dyn/cm which was slightly lower than the 24 dyn/cm observed for MCT-I and higher than for the SCT-I monolayer which collapses at 12 dyn/cm.

[4] = Binding to single bilayer egg lecithin vesicles; type: physicochemical; details: 1 to 100 μM peptide; SCT-I at pH 7.4 or pH 3.0
Protocol: Egg lecithin single bilayer vesicles (SBVs) were prepared by rapid injection of an ethanolic egg yolk lecithin (Avanti Polar-Lipids Inc., Birmingham, AL) solution into aqueous 0.16M KCl by the method of Batzri, S. and E. D. Korn, Biochim. Biophys. Acta 298:1015(1973) and purified by filtration through a 2.5 cm×87 cm column of Fractogel TSK HW-75(F)™ (Pierce Chemical Co., Rockford, IL). After purification, vesicles were characterized by gel filtration through a 1.5 cm×40 cm column of Sepharose CL-4B™ (Pharmacia Fine Chemicals) by the method of Batzri and Korn, supra. The concentration of vesicles in stock solutions were determined by the phosphate assay of Ames, B. N. and D. T. Dubin, J. Biol. Chem. 235:769(1960). […] The concentration of peptide in each fraction was determined using fluorescamine after first disrupting the vesicles with isopropanol (20% by volume).
The data for MCT-I and MCT-II were analyzed according to the equation Pf =(N·V·Pf /Pb)-K (Adamson, A. W., Physical Chemistry of Surfaces, 3rd Ed. (Wiley Interscience, New York, 1976), p. 388), where Pf and Pb are the concentration of free and bound peptide respectively, V is the initial molarity of vesicles (3200 phospholipids per vesicle), N is the upper limit of Pf /V, and K is the dissociation constant. […]

[5] = calculated using the entire π-A curve (Example 7)
[6] = π-A curve between 5 and 12 dyn/cm (Example 4)

Compound | IC50 [1] [nM] | α-helicity estimated from [θ]222 ([2]; 0.02M sodium phosphate, 0.16M KCl, pH 7.4) [%] | Mean residue molar ellipticity at 222 nm, [θ]222 ([2]; 0.02M sodium phosphate, 0.16M KCl, pH 7.4, constant from 10^-7 M to 10^-4 M) | α-helicity in 50% trifluoroethanol ([2]; 5×10^-5 M peptide) [%] | Collapse pressure of the monolayer ([3]; air-water interface, 0.01M Tris.HCl pH 7.4, 0.1M NaCl) | A∞, limiting molecular area extrapolated to zero surface pressure [3, 5] [Å^2] | κ, compressibility constant of the monolayer [3, 5] [cm/dyn] | A∞, limiting molecular area extrapolated to zero surface pressure [3, 6] [Å^2] | κ, compressibility constant of the monolayer [3, 6] [cm/dyn] | Adsorption to the surface of single bilayer egg lecithin vesicles [4]
CC(C)C[C@H](NC(=O)[C@H](CCCCN)NC(=O)[C@H](CCC(N)=O)NC(=O)[C@H](CC(C)C)NC(=O)[C@H](CCC(N)=O)NC(=O)[C@H](CCC(N)=O)NC(=O)[C@H](CC(C)C)NC(=O)[C@H](CC(C)C)NC(=O)[C@@H]1CSSC[C@H](N)C(=O)N[C@@H](CO)C(=O)N[C@@H](CC(N)=O)C(=O)N[C@@H](CC(C)C)C(=O)N[C@@H](CO)C(=O)N[C@@H]([C@@H](C)O)C(=O)N1)C(=O)N[C@@H](CC(C)C)C(=O)N[C@@H](CCC(N)=O)C(=O)N[C@@H](CCCCN)C(=O)N[C@@H](CC(C)C)C(=O)N[C@@H](CCCCN)C(=O)N[C@@H](CCC(N)=O)C(=O)N[C@@H](Cc1ccc(O)cc1)C(=O)N1CCC[C@H]1C(=O)N[C@@H](CCCNC(=N)N)C(=O)N[C@H](C(=O)N[C@@H](CC(N)=O)C(=O)N[C@H](C(=O)NCC(=O)N[C@@H](CO)C(=O)NCC(=O)N[C@H](C(=O)N1CCC[C@H]1C(N)=O)[C@@H](C)O)[C@@H](C)O)[C@@H](C)O [MCT-II] (H-CSNLSTCLLQQLQKLLQKLKQYPRTNTGSGTP-NH2; disulfide 1-7; N-terminus assumed) | ~1.5 | – | – | – | – | – | – | – | – | –
CC(C)C[C@H](NC(=O)[C@H](CCCCN)NC(=O)CNC(=O)[C@H](CC(C)C)NC(=O)[C@@H](NC(=O)[C@@H]1CSSC[C@H](N)C(=O)N[C@@H](CO)C(=O)N[C@@H](CC(N)=O)C(=O)N[C@@H](CC(C)C)C(=O)N[C@@H](CO)C(=O)N[C@@H]([C@@H](C)O)C(=O)N1)C(C)C)C(=O)N[C@@H](CO)C(=O)N[C@@H](CCC(N)=O)C(=O)N[C@@H](CCC(=O)O)C(=O)N[C@@H](CC(C)C)C(=O)N[C@@H](Cc1c[nH]cn1)C(=O)N[C@@H](CCCCN)C(=O)N[C@@H](CC(C)C)C(=O)N[C@@H](CCC(N)=O)C(=O)N[C@H](C(=O)N[C@@H](Cc1ccc(O)cc1)C(=O)N1CCC[C@H]1C(=O)N[C@@H](CCCNC(=N)N)C(=O)N[C@H](C(=O)N[C@@H](CC(N)=O)C(=O)N[C@H](C(=O)NCC(=O)N[C@@H](CO)C(=O)NCC(=O)N[C@H](C(=O)N1CCC[C@H]1C(N)=O)[C@@H](C)O)[C@@H](C)O)[C@@H](C)O)[C@@H](C)O [SCT-I, salmon calcitonin, reference compound] | – | 20 | -4,600 deg.cm^2 /dmol | 50 | 14 dyn/cm and 12 dyn/cm | 559±18 | 0.03 | 322 | 0.02 | no detectable adsorption

Source: patent publication US4663309A, “Novel peptide hormones with calcitonin-like activity” (University Patents, Inc., priority 1985, dated 1987)
